Measured values from article PMC6769022, “Identification of an adhesive interface for the non-clustered δ1 protocadherin-1 involved in respiratory diseases” (Communications Biology, 2019).
Results are given in words; binding and its absence hold for the method and conditions named. One block for each molecule: values may come before it.

Key:
[1] = molecular target: PCDH1 EC1-4 C375S K398E (human) (UniProt Q08174); test: AUC; sedimentation velocity, 50,000 r.p.m., 20 °C, 20 mM Tris-HCl pH 8.0, 150 mM KCl, 50 mM NaCl, 2 mM CaCl2; dimer to monomers; both purified
[2] = molecular target: PCDH1 EC1-7Fc K398E (human) (UniProt Q08174); test: bead aggregation assay; Fc fusions from concentrated HEK293T medium bound to protein G Dynabeads, washed; binding buffer 50 mM TrisHCl pH 7.5, 100 mM NaCl, 10 mM KCl, 0.2% BSA with 2 mM CaCl2; 60 min without motion, then 1 and 2 min rocking; aggregates imaged; both purified
PCDH1 EC1-7Fc (human) = PCDH1 EC1-7Fc (human) (UniProt Q08174); test: bead aggregation assay; as the calcium assay, but with 2 mM EDTA in place of 2 mM CaCl2; both purified

binding [1]: no binding
Molecule: PCDH1 EC1-4 C375S K398E (from UniProt Q08174 58-503) (domain or fragment)

binding [2]: no binding
Molecule: PCDH1 EC1-7Fc K398E (from UniProt Q08174 58-852) (Fc fusion)

binding (PCDH1 EC1-7Fc (human)): no binding (condition: with 2 mM EDTA)
B1: PCDH1 EC1-7Fc (Fc fusion, human, UniProt Q08174 58-852, looked up)
chain: TRVVYKVPEEQPPNTLIGSLAADYGFPDVGHLYKLEVGAPYLRVDGKTGDIFTTETSIDREGLRECQNQLPGDPCILEFEVSITDLVQNGSPRLLEGQIEVQDINDNTPNFASPVITLAIPENTNIGSLFPIPLASDRDAGPNGVASYELQAGPEAQELFGLQVAEDQEEKQPQLIVMGNLDRERWDSYDLTIKVQDGGSPPRASSALLRVTVLDTNDNAPKFERPSYEAELSENSPIGHSVIQVKANDSDQGANAEIEYTFHQAPEVVRRLLRLDRNTGLITVQGPVDREDLSTLRFSVLAKDRGTNPKSARAQVVVTVKDMNDNAPTIEIRGIGLVTHQDGMANISEDVAEETAVALVQVSDRDEGENAAVTCVVAGDVPFQLRQASETGSDSKKKYFLQTTTPLDYEKVKDYTIEIVAVDSGNPPLSSTNSLKVQVVDVNDNAPVFTQSVTEVAFPENNKPGEVIAEITASDADSGSNAELVYSLEPEPAAKGLFTISPETGEIQVKTSLDREQRESYELKVVAADRGSPSLQGTATVLVNVLDCNDNDPKFMLSGYNFSVMENMPALSPVGMVTVIDGDKGENAQVQLSVEQDNGDFVIQNGTGTILSSLSFDREQQSTYTFQLKAVDGGVPPRSAYVGVTINVLDENDNAPYITAPSNTSHKLLTPQTRLGETVSQVAAEDFDSGVNAELIYSIAGGNPYGLFQIGSHSGAITLEKEIERRHHGLHRLVVKVSDRGKPPRYGTALVHLYVNETLANRTLLETLLGHSLDTPLDIDIAGDPEYERSKQRGN
notes: Protocadherin-1 (PCDH1), human, repeats EC1 to EC7 (full-length extracellular domain); native signal peptide in the construct; Vector CMV:N1-Fc; Fc detected with anti-human IgG; also called human Protocadherin-1 full-length extracellular domain, Fc-tagged; wild-type PCDH1 EC1-7Fc; source: HEK293T, transfected, secreted into serum-free medium, captured on protein G Dynabeads
